Consider one substance from patent publication US20230365653A1.

Amino acid sequences for entries named in this document (tags omitted). A change or cut given only in a name is not applied to a line headed by its entry.
UniProt Q9NZQ7: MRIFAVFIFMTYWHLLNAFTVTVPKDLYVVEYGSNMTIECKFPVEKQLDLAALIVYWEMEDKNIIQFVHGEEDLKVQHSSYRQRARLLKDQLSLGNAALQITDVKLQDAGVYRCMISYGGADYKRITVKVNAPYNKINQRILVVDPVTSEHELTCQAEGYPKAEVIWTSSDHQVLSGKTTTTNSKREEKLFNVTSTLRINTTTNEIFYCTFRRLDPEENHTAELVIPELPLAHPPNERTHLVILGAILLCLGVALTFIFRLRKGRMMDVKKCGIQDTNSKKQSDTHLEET
UniProt P37173: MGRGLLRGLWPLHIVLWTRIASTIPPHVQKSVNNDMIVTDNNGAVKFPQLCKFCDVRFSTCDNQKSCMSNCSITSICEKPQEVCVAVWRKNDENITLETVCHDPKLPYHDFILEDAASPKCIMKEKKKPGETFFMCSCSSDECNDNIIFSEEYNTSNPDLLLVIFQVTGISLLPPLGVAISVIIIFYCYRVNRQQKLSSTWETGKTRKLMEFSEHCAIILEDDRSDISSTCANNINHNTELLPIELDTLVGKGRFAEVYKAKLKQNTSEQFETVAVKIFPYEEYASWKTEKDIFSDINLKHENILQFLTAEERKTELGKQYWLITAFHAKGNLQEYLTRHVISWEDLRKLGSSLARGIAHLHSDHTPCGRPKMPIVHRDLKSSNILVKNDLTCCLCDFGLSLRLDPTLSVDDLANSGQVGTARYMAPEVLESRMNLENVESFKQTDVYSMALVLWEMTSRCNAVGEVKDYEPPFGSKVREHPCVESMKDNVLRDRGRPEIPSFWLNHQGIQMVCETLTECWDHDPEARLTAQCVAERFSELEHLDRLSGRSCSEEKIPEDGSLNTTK

The target of experiment [1] is recombinant human PD-L1-his protein (Accession No.: NP_054862.1, 19 aa-238 aa) (human) (UniProt Q9NZQ7). Nature of the experiment: BLI (Octet QKe).
Experiment [2] shares this target. Put plainly: ELISA, target coated at 1 µg/ml. Background: In an ELISA, binding on a coated surface is turned into a signal by an enzyme label.

These are yes or no findings as the source states them, for the method shown. Some results given as binding are weak or reduced against the parent protein; the word gives no strength.

For “anti-human PD-L1 nanobody/TGF-β RII fusion protein mutant hzF2-TGF-β RIIm2 (from UniProt P37173 24-159)”, the binding result in experiment [1] and in experiment [2] was “binds” each time.
